Data from US20240033737A1, “DEVICES AND METHODS FOR CONTINUOUS DIELECTROPHORESIS CELL SORTING TO ISOLATE DIFFERENT POPULATIONS OF CELLS, AND APPLICATIONS THEREOF” (The Regents of the University of California, priority 2022, published 2024).
At least one structure is not confirmed: it was looked up by name or label, or the drawing left a doubt.

Assays:
Type in all cases: cell-based
D54 cells = assay: TMZ resistance of DEP-sorted focused and unfocused fractions (XTT assay); conditions: unfocused cell fraction (lower Cspec) vs focused cell fraction
[1] = test system: DB70 patient derived GBM cells; assay: TMZ resistance of DEP-sorted focused and unfocused fractions; conditions: focused fraction vs unfocused fraction
U251 GBM cells = assay: as above; conditions: unfocused fraction vs focused fraction

What does the source list for `Cn1nnc2c(C(N)=O)ncn2c1=O` [TMZ, Temozolomide]?
relative IC50 of TMZ (D54 cells): higher relative IC50 value; resistance to TMZ [1]: more resistant to TMZ; resistance to TMZ (U251 GBM cells): more resistant to TMZ
